PubChem BioAssay AID652243 – Drosophila RNAi Screening Center | 2013
Purpose: 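Fly genes required for human androgen receptor driven transcription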 (primary screen). Cell system: Drosophila S2R+ cells. Knock-down reagent: long dsRNA against Drosophila genes. Time to read-out: 72 h (48 h, then 24 h hormone). Challenge: synthetic androgen R1881 at 10 nM for 24 h. Detection: 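Firefly light from an androgen-responsive reporter and Renilla control light per well, raw and unnormalised, for each of two replicates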. Reading the numbers: firefly reporter light: higher = more light from androgen-responsive reporter; Renilla control light: higher = more constitutive control signal (cell number, transfection). Active means: 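Across duplicate plates, a knock-down whose log firefly/Renilla ratio shifted a set fold down or up from the GFP/LacZ control mean was a hit; the downward cut appears as both 1.5 and 3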. Calls: active = hit: reporter lowered or raised; inactive = no hit.
The deposit covers about 24,000 reagents; this is a random part of those that have a named target and a result. Over the whole deposit, 246 (1%) are marked active. 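Plates not normalised; calls are printed but the firefly/Renilla ratio behind them is not deposited; fold cut for lowering reported inconsistently.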 Raw values are not corrected between plates. Names joined by + are all predicted targets of the reagent. Reagent sequences are not shown. Not stated in the record: the amount of reagent.

The opening 2 records as a preview:
gene,dsRNA,"firefly reporter light, replicate 1","firefly reporter light, replicate 2","Renilla control light, replicate 1","Renilla control light, replicate 2",Outcome
fest,DRSC07349,57569,53100,9.95e5,1.09e6,inactive
fest,DRSC24249,1.10e6,9.69e5,1.09e6,1.00e6,inactive

The list itself, repeating the preview:
gene,dsRNA,"firefly reporter light, replicate 1","firefly reporter light, replicate 2","Renilla control light, replicate 1","Renilla control light, replicate 2",Outcome
fest,DRSC07349,57569,53100,9.95e5,1.09e6,inactive
fest,DRSC24249,1.10e6,9.69e5,1.09e6,1.00e6,inactive
CG33223,DRSC17572,7.81e5,8.52e5,1.17e6,1.08e6,inactive
CG33223,DRSC26875,3.71e5,3.60e5,1.14e6,8.83e5,inactive
asRNA:CR43159 + yellow-k,DRSC10851,1.45e5,1.62e5,1.56e6,1.83e6,inactive
AIF,DRSC00696,8.74e5,6.32e5,3.22e6,1.86e6,inactive
AsnRS,DRSC01990,5.60e5,8.09e5,1.13e6,1.30e6,inactive
CG15096,DRSC06525,2.72e5,3.76e5,7.38e5,7.38e5,inactive
CG15096,DRSC29737,3.10e5,2.97e5,8.88e5,1.08e6,inactive
CG5556,DRSC00687,1.35e5,1.37e5,9.25e5,1.14e6,inactive
Atg7,DRSC05741,1.86e5,1.05e5,5.86e5,2.27e5,inactive
Atg7,DRSC06937,1.20e5,1.17e5,1.61e6,1.36e6,inactive
Best4,DRSC10792,2.70e5,1.98e5,1.69e6,1.77e6,inactive
Best4,DRSC29196,3.65e5,4.70e5,1.62e6,1.40e6,inactive
Best4,DRSC39053,6.04e5,6.04e5,1.89e6,2.25e6,inactive
CG12182,DRSC08142,8.95e5,7.35e5,1.46e6,8.79e5,inactive
Jhbp3,DRSC12247,75692,65654,1.64e6,1.56e6,inactive
CG3517,DRSC15492,2.45e5,2.06e5,3.38e6,2.57e6,inactive
CG3517,DRSC26928,4.17e5,4.97e5,5.85e5,4.91e5,inactive
yellow-h,DRSC17141,3.38e5,3.17e5,8.72e5,1.91e6,inactive
Tet,DRSC08550,5.44e5,6.66e5,1.79e6,1.61e6,inactive
Tet,DRSC08646,92833,90686,1.30e6,1.24e6,inactive
Tet,DRSC26922,4.74e5,3.83e5,4.99e5,3.01e5,inactive
Tet,DRSC28377,1.48e5,3.88e5,5.28e5,9.40e5,inactive
Gr36c,DRSC02437,1.60e5,1.40e5,1.29e6,1.31e6,inactive
Gr36c,DRSC26305,2.73e5,3.37e5,6.10e5,4.81e5,inactive
CG18473,DRSC16381,68084,84092,1.72e6,1.55e6,inactive
lncRNA:CR32730,DRSC22957,3.26e5,8.16e5,1.01e6,2.27e6,inactive
CG34164,DRSC02837,2.46e5,1.57e5,1.21e6,1.29e6,inactive
CG34347,DRSC14305,39948,47067,1.08e6,1.21e6,active
CG34347,DRSC23044,6.13e5,7.45e5,1.66e6,2.19e6,inactive
CG34347,DRSC24430,9.80e5,8.67e5,1.24e6,1.15e6,inactive
CG1092,DRSC12151,30990,51767,3.34e5,4.81e5,inactive
CG1092,DRSC24479,9.21e5,1.08e6,1.07e6,1.15e6,inactive
CG8870,DRSC16452,87605,1.63e5,1.20e6,1.80e6,inactive
car,DRSC20316,1.03e5,87498,7.47e5,6.50e5,inactive
car,DRSC26230,3.15e5,4.11e5,8.98e5,6.60e5,inactive
CG8323,DRSC07149,53225,70943,1.11e6,1.11e6,inactive
CanA1,DRSC16600,2.25e5,1.95e5,1.79e6,2.95e6,inactive
CanA1,DRSC25868,4.27e5,4.55e5,9.37e5,9.75e5,inactive
CanA1,DRSC37014,,,,,inactive
Indy-2 + CG33934,DRSC15685,1.09e5,78413,7.17e5,6.99e5,inactive
Indy-2 + CG33934,DRSC15686,3.36e5,3.32e5,2.60e6,2.94e6,inactive
Gld,DRSC12595,61455,44468,5.85e5,7.12e5,inactive
CG3473,DRSC01915,2.71e5,3.04e5,2.72e6,3.18e6,inactive
Cyp6d4,DRSC16633,1.04e5,1.19e5,1.10e6,1.25e6,inactive
Cyp6d4,DRSC24371,4.02e5,2.61e5,6.23e5,3.10e5,inactive
CG13711,DRSC08320,2.02e5,2.19e5,9.81e5,1.60e6,inactive
CG13711,DRSC24101,8.77e5,4.82e5,9.18e5,1.29e6,inactive
GC,DRSC08396,84041,81056,6.18e5,5.61e5,inactive
GC,DRSC27222,3.16e5,2.13e5,7.58e5,5.46e5,inactive
COX8,DRSC11814,2.97e5,2.37e5,2.77e6,1.40e6,inactive
COX8,DRSC28975,3.67e5,4.51e5,1.14e6,1.18e6,inactive
CG8405,DRSC05599,2.07e5,2.62e5,3.33e5,3.35e5,inactive
CG8405,DRSC07166,60151,1.21e5,1.38e6,1.38e6,inactive
CG8128,DRSC20084,1.11e5,1.18e5,6.18e5,8.20e5,inactive
CR33701,DRSC37882,8.07e5,8.06e5,1.37e6,1.54e6,inactive
Sgt,DRSC02812,4.41e5,8.85e5,7.15e5,1.81e6,inactive
Sgt,DRSC25360,6.89e5,8.49e5,8.71e5,9.47e5,inactive
